Data reported in patent publication US20250249038A1.
Results are given in words; binding and its absence hold for the method and conditions named. Some binding calls cover weakened binding; strength is not graded here. Blank lines part the entries; values can stand above or below the binder they belong to.

Protein sequences, listed by entry. Tags and fused reporters are not part of them. Residues count along the entry.
UniProt P40259, residues 29-159: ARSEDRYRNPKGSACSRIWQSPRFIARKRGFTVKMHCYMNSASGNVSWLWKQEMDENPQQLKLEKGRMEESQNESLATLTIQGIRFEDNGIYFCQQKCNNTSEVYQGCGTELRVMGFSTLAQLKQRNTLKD

Legend:
[1] = biological target: APC conjugated CD79B antigen (UniProt P40259); test: flow cytometry, APC conjugated CD79B antigen staining of transfected 293T cells
[2] = biological target: T1, fluorochrome conjugated recombinant CD70 protein (UniProt P32970); test: flow cytometry, fluorochrome conjugated recombinant CD70 protein staining of CAR-transduced primary human T cells
T1 sequence (fluorochrome conjugated (fluorochrome and site not stated), looked up): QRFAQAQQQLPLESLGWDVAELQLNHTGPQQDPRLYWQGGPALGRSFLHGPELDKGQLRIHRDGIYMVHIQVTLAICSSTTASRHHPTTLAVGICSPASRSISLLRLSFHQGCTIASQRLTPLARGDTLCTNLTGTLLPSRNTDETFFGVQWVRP

- binding [1]: binds
B1: CD79B CAR (SN8 scFv-CD30 HTM-CD28 cos-CD3Zeta) (protein)
chain: DIVLTQSPASLAVSLGQRATISCKASQSVDYDGDSFLNWYQQKPGQPPKLFIYAASNLESGIPARFSGSGSGTDFTLNIHPVEEEDAATYYCQQSNEDPLTFGAGTELELKRSGGGGSGGGGSGGGGSGGGGSEVQLQQSGAELMKPGASVKISCKATGYTFSSYWIEWVKQRPGHGLEWIGEILPGGGDTNYNEIFKGKATFTADTSSNTAYMQLSSLTSEDSAVYYCTRRVPVYFDYWGQGTSVTVSSAPASTSPTQSLLVDSQASKTLPIPTSAPVALSSTGKPVLDAGPVLFWVILVLVVVVGSSAFLLYCWVRSKRSRLLHSDYMNMTPRRPGPTRKHYQPYAPPRDFAAYRSRVKFSRSADAPAYQQGQNQLYNELNLGRREEYDVLDKRRGRDPEMGGKPRRKNPQEGLYNELQKDKMAEAYSEIGMKGERRRGKGHDGLYQGLSTATKDTYDALHMQALPPR

- binding [2]: binds
B2: CD70 CAR (tCD27-CD30 HTM-CD28 cos-CD3Zeta) (protein)
chain: ATPAPKSCPERHYWAQGKLCCQMCEPGTFLVKDCDQHRKAAQCDPCIPGVSFSPDHHTRPHCESCRHCNSGLLVRNCTITANAECACRNGWQCRDKECTECDPLPAPASTSPTQSLLVDSQASKTLPIPTSAPVALSSTGKPVLDAGPVLFWVILVLVVVVGSSAFLLYCWVRSKRSRLLHSDYMNMTPRRPGPTRKHYQPYAPPRDFAAYRSRVKFSRSADAPAYQQGQNQLYNELNLGRREEYDVLDKRRGRDPEMGGKPRRKNPQEGLYNELQKDKMAEAYSEIGMKGERRRGKGHDGLYQGLSTATKDTYDALHMQALPPR
